{
  "source": "paper PMC10573977",
  "about": "(International Journal of Molecular Sciences, 2023)",
  "test": "general procedure: Fmoc solid-phase peptide synthesis; Rink amide MBHA resin (100-200 mesh, 0.83 mmol/g); HBTU/NMM in DMF; Cl-HOBt/DIC in NMP for first glycosyl-Ser coupling",
  "details": "whole synthesis, 280 nm",
  "note": "Some peptides are written in HELM: one residue between dots, names in brackets for other building blocks, links after the first $.",
  "data": [
    {"substance": "PEPTIDE1{D.R.V.Y.I.H.[Ser(Lact)].[am]}$$$$V2.0", "values": [
      {"measurement": "final HPLC purity", "result": "100% purity (at 280 m)"}
    ]}
  ]
}
